Measured data: PubChem BioAssay AID1259254 (NCATS, 2017)

Purpose: 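Genome-wide screen for genes that prevent DNA re-replication in cancer cells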 (primary screen)
Cell system: human HCT116 colorectal cancer cells
Reagent: single siRNA against human genes
Duration: 3 days
Detection: 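Imaged Hoechst DNA stain sorts each cell into a cycle phase by DNA amount; per plate, G2 fraction set to 0% for non-targeting and 100% for GMNN siRNA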
Scale: G2 robust z-score and G2 cells, % of GMNN control: higher = more G2 cells, more excess DNA replication; raw share of cells in G2: higher = larger share of cells with G2 DNA content
Call rule: 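An siRNA counts as active if its G2 robust z-score lies at least 5 MADs above the screen median; here such calls match roughly 38% of GMNN control or more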
The deposit covers about 59,000 reagents; shown is a random part of them. In the full data, about 1,550 (2.6%) got an active call. 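G2 share is only a proxy for re-replication; each gene was hit by three separate siRNAs, and active genes were retested.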 Raw values are not corrected between plates. Reagents against one gene are numbered here. The record does not give: the amount of reagent.

| gene | siRNA no. | G2 robust z-score | G2 cells, % of GMNN control | raw share of cells in G2 (%) | Outcome |
| --- | --- | --- | --- | --- | --- |
| LANCL3 | 1 | -1.36 | -6.57 | 1.73 | inactive |
| LANCL3 | 2 | -0.181 | 1.69 | 4 | inactive |
| LANCL3 | 3 | -0.786 | -2.56 | 3.16 | inactive |
| CAPG | 1 | 0.783 | 8.48 | 6.84 | inactive |
| CAPG | 2 | -0.218 | 1.43 | 5.97 | inactive |
| CAPG | 3 | 3.37 | 26.7 | 13.9 | inactive |
| OR8G2P | 1 | -0.337 | 0.593 | 4.64 | inactive |
| OR8G2P | 2 | -1.08 | -4.6 | 1.95 | inactive |
| OR8G2P | 3 | -0.801 | -2.67 | 2.36 | inactive |
| CIB1 | 1 | -0.334 | 0.617 | 5.78 | inactive |
| CIB1 | 2 | 0.104 | 3.7 | 6.54 | inactive |
| CIB1 | 3 | -0.483 | -0.431 | 3.54 | inactive |
| CIMIP7 | 1 | 2.05 | 17.4 | 8.57 | inactive |
| CIMIP7 | 2 | -0.22 | 1.42 | 4.31 | inactive |
| CIMIP7 | 3 | -0.221 | 1.41 | 3.75 | inactive |
| FSD1 | 1 | -0.24 | 1.28 | 4.69 | inactive |
| FSD1 | 2 | -1.08 | -4.64 | 2.71 | inactive |
| FSD1 | 3 | 1.02 | 10.1 | 9.84 | inactive |
| ODF2 | 1 | -0.48 | -0.41 | 4.8 | inactive |
| ODF2 | 2 | -0.129 | 2.06 | 5.03 | inactive |
| ODF2 | 3 | 0.46 | 6.21 | 5.6 | inactive |
| RCC2P7 | 1 | 5.35 | 40.6 | 19.3 | active |
| RCC2P7 | 2 | -0.583 | -1.13 | 2.99 | inactive |
| RCC2P7 | 3 | -0.166 | 1.8 | 3.73 | inactive |
| SETDB1 | 1 | 1.54 | 13.8 | 10.3 | inactive |
| SETDB1 | 2 | -0.499 | -0.54 | 5 | inactive |
| SETDB1 | 3 | -0.0523 | 2.6 | 4.09 | inactive |
| SH2D4B | 1 | -0.298 | 0.873 | 4.07 | inactive |
| SH2D4B | 2 | 2.1 | 17.7 | 11.1 | inactive |
| SH2D4B | 3 | -0.536 | -0.806 | 4.29 | inactive |
| NBN | 1 | 1.32 | 12.3 | 10.2 | inactive |
| NBN | 2 | -0.11 | 2.19 | 5.09 | inactive |
| NBN | 3 | -0.788 | -2.58 | 2.42 | inactive |
| FGF23 | 1 | 0.152 | 4.03 | 6.92 | inactive |
| FGF23 | 2 | 2.15 | 18.1 | 11.1 | inactive |
| FGF23 | 3 | -0.853 | -3.03 | 2.28 | inactive |

Individual results from the list.
Result for NBN #3 in “raw share of cells in G2 (%)”: 2.42
Result for SH2D4B #2 under “Outcome”: inactive
NBN #1, raw share of cells in G2 (%) = 10.2
Value of CAPG #2 under “raw share of cells in G2 (%)”: 5.97
Value for SH2D4B #3 in “raw share of cells in G2 (%)”: 4.29
Entry of RCC2P7 #1 in “Outcome”: active

Further entries follow:
| gene | siRNA no. | G2 robust z-score | G2 cells, % of GMNN control | raw share of cells in G2 (%) | Outcome |
| --- | --- | --- | --- | --- | --- |
| SH3KBP1 | 1 | 2.01 | 17.1 | 13.7 | inactive |
| SH3KBP1 | 2 | 2.4 | 19.8 | 11.6 | inactive |
| SH3KBP1 | 3 | -0.464 | -0.295 | 3.69 | inactive |
| ARID2 | 1 | 0.247 | 4.7 | 5.29 | inactive |
| ARID2 | 2 | -0.31 | 0.789 | 3.22 | inactive |
| ARID2 | 3 | -0.254 | 1.18 | 3.14 | inactive |
| ASPDH | 1 | -0.24 | 1.28 | 3.55 | inactive |
| ASPDH | 2 | 0.288 | 4.99 | 5.55 | inactive |
| ASPDH | 3 | 0.0026 | 2.99 | 4.55 | inactive |
| SPATA31C1 | 1 | 0.142 | 3.97 | 5.15 | inactive |
| SPATA31C1 | 2 | 0.269 | 4.86 | 5.26 | inactive |
| SPATA31C1 | 3 | -0.228 | 1.36 | 3.58 | inactive |
| FAP | 1 | -0.953 | -3.74 | 4.26 | inactive |
| FAP | 2 | 0.356 | 5.47 | 6.84 | inactive |
| FAP | 3 | -0.427 | -0.0371 | 3.9 | inactive |
| PCDHGA3 | 1 | 8.33 | 61.6 | 33.4 | active |
| PCDHGA3 | 2 | -1.46 | -7.31 | 1.82 | inactive |
| PCDHGA3 | 3 | 1.64 | 14.5 | 10.4 | inactive |
| KAT8 | 1 | -0.784 | -2.55 | 3.84 | inactive |
| KAT8 | 2 | -0.957 | -3.76 | 2.83 | inactive |
| KAT8 | 3 | -0.572 | -1.06 | 4.99 | inactive |
| APEX2 | 1 | 0.155 | 4.06 | 5.32 | inactive |
| APEX2 | 2 | 6.85 | 51.2 | 29.4 | active |
| APEX2 | 3 | -0.906 | -3.41 | 3.06 | inactive |
| CIB4 | 1 | 0.0739 | 3.49 | 6.67 | inactive |
| CIB4 | 2 | 2.65 | 21.6 | 13.1 | inactive |
| CIB4 | 3 | 0.965 | 9.76 | 6.81 | inactive |
| YPEL4 | 1 | -0.0772 | 2.42 | 4.46 | inactive |
| YPEL4 | 2 | -0.358 | 0.447 | 3.28 | inactive |
| YPEL4 | 3 | -0.951 | -3.73 | 2 | inactive |
| MAP3K15 | 1 | -0.552 | -0.918 | 5.3 | inactive |
| MAP3K15 | 2 | -0.427 | -0.0369 | 5.18 | inactive |
| MAP3K15 | 3 | -0.479 | -0.402 | 3.55 | inactive |
| ZNF716 | 1 | 1.46 | 13.2 | 7.63 | inactive |
| ZNF716 | 2 | -0.462 | -0.282 | 3.07 | inactive |
| ZNF716 | 3 | 1.03 | 10.2 | 7.11 | inactive |
| MT1X | 1 | 1.11 | 10.8 | 7.26 | inactive |
| MT1X | 2 | 2.42 | 20 | 13.5 | inactive |
| MT1X | 3 | 2.14 | 18 | 11.3 | inactive |
| MRPL17 | 1 | -0.285 | 0.959 | 5 | inactive |
| MRPL17 | 2 | 5.07 | 38.7 | 21.9 | active |
| MRPL17 | 3 | 0.255 | 4.76 | 3.95 | inactive |
| RNF111 | 1 | 0.172 | 4.18 | 7.85 | inactive |
| RNF111 | 2 | -0.328 | 0.661 | 4.49 | inactive |
| RNF111 | 3 | 1.5 | 13.5 | 8.98 | inactive |
| RAD21-AS1 | 1 | 1.15 | 11.1 | 6.37 | inactive |
| RAD21-AS1 | 2 | -0.0321 | 2.74 | 4.68 | inactive |
| RAD21-AS1 | 3 | -0.253 | 1.19 | 3.7 | inactive |
| PIGW | 1 | 0.727 | 8.08 | 9.4 | inactive |
| PIGW | 2 | -0.781 | -2.53 | 3.97 | inactive |
| PIGW | 3 | 0.383 | 5.66 | 6.35 | inactive |
